Laboratory results taken from publication PMC6925144, “A prospective compound screening contest identified broader inhibitors for Sirtuin 1” (Scientific Reports, 2019).
Whole data set: some 3,200 compounds, median “TSA(without NAD+) / Primary screening (TSA) / delta Tm (K)” near -0.07, cut for the highest 2% near 0.37. This is one part of the list.

By UniProt entry, the sequences of proteins in these tests, tags left out. Residues count along the entry.
UniProt Q96EB6, 2-747 limits assumed: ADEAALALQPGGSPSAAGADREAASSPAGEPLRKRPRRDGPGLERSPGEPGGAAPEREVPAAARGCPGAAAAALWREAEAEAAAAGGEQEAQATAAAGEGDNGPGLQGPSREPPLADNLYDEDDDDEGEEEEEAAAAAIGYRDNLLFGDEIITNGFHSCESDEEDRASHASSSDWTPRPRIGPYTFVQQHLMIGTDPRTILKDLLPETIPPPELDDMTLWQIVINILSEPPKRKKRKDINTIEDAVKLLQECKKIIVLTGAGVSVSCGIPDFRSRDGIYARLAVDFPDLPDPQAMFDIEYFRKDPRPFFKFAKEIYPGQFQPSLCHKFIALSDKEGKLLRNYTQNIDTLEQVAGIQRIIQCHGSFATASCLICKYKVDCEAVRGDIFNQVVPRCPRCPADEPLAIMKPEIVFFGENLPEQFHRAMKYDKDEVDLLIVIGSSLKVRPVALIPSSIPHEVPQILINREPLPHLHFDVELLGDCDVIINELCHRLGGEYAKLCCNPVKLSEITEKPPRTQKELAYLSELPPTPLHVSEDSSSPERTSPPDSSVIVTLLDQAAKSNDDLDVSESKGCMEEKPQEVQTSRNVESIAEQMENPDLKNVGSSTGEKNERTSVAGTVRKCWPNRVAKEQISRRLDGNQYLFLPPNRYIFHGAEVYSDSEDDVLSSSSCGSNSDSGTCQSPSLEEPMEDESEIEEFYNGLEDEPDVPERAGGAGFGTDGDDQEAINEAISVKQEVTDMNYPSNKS

Molecular target: NAD-dependent deacetylase Sirtuin 1 (human, UniProt Q96EB6)
Assay: primary screen, delta tm
Parameters: single well (n = 1)
Details: 10 µM
In short: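 Thermal shift of Sirtuin 1 measured without NAD+, compound at 10 µM (n = 1); value is ΔTm, with hits defined as ΔTm > 0.45 K or < −1.5 K. Hits retested at 5, 10, 20 µM (n = 4) and counterscreened on bovine carbonic anhydrase and ABL1 SH2 domain.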

SMILES | TSA(without NAD+) / Primary screening (TSA) / delta Tm (K)
Cn1c(Cl)c(C=O)c2cc(C=O)ccc21 | -0.12 K
Cc1ccc(N(C)S(=O)(=O)c2cccc(C(=O)Nc3c(C)cc(C)cc3Cl)c2)cc1 | -0.08 K
Cc1ccc(N(C)S(=O)(=O)c2cccc(C(=O)Oc3ccc4c(C)cc(=O)oc4c3)c2)cc1 | 0.19 K
CNc1[nH]cnc2ncnc1-2 | 0.05 K
CCc1cccc(C)c1NC(=O)c1cccc(S(=O)(=O)N(C)c2ccc(C)cc2)c1 | -0.15 K
N#Cc1cn(CCCOc2ccccc2)c2ccc(Cl)cc2c1=O | -0.01 K
O=C(c1ccc[nH]1)N1CCCC1c1ccc2c(c1)OCCCO2 (centres unmarked) | -0.12 K
COc1ccc(C(=O)Nc2ccccc2Oc2ccccc2)cc1OC | -0.03 K
CCCOc1ccc(C2C(C(=O)c3ccc(OC)cc3)=C(O)C(=O)N2CCCN2CCOCC2)cc1 (centres unmarked) | 0.05 K
CCC(OC)C(=O)O (centres unmarked) | 0.06 K
c1ccc(-c2nc(-c3cnn(-c4ccccc4)n3)[nH]c2-c2ccccc2)cc1 | 0.15 K
O=C(Nc1ccccc1Cc1ccccc1)c1ccc(CN2C(=O)CNC2=O)cc1 | 0.02 K
Cc1ccc(NC(=O)CN(C)S(=O)(=O)c2ccc3c(c2)CC(=O)N3C)cc1 | 0.08 K
Cc1sc2ncnc(N3CCC(C(=O)Nc4sc5c(c4C(N)=O)CCC(C)C5)CC3)c2c1C (centres unmarked) | -0.01 K
O=C(Cc1c[nH]c2ccccc12)NCc1ccc(-c2ccc(O)cc2)cc1 | -0.07 K
CN(c1ccc2ccccc2c1)S(=O)(=O)c1cccc(C#N)c1 | -0.18 K
COc1ccc2cc(/C=C/C(=O)Nc3ccc(C(N)=O)cc3)ccc2c1 | 0.36 K
CN(c1ccccc1)S(=O)(=O)c1cccc(C(=O)OCC(=O)Nc2ccc(C(N)=O)cc2)c1 | 0.13 K
COc1cccc(-n2ccnc2SC2CCCCNC2=O)c1 (centres unmarked) | 0.06 K
COc1ccc(C(=O)C2=C(O)C(=O)N(CCCN3CCOCC3)C2c2ccccc2)cc1 (centres unmarked) | -0.12 K
Cc1cn2c3c(=O)[nH]c(=O)n(C)c3nc2n1CCCN1CCc2ccccc2C1 | -0.22 K
OCCNc1ncnc2ccsc12 | -0.13 K
COC(=O)c1ccc2[nH]cnc2c1 | -0.21 K

SMILES | TSA(without NAD+) / Primary screening (TSA) / delta Tm (K)
OC1CCN(c2ncnc3ccsc23)CC1 | -0.18 K
CN(c1cccnc1)S(=O)(=O)c1cnc2c(c1)c(=O)[nH]c(=O)n2C | -0.17 K
O=C1/C(=C\c2cc3ccccc3nc2N2CCOCC2)Oc2cc(O)ccc21 | 0.09 K
O=C(COC(=O)CN1C(=O)CSc2ccccc21)Nc1ccccc1SCc1ccccc1 | 0.07 K
COCc1c(C(=O)Nc2ccc(N3CCN(Cc4ccccc4)CC3)cc2)oc2ccccc12 | -0.13 K
CCNC(=O)c1cccc(NC(=O)C2CCN(S(=O)(=O)c3cc(C(C)(C)C)ccc3C)CC2)c1 | 0.17 K
COc1ccc(Br)cc1/C=C1/Oc2cc(O)ccc2C1=O | -0.13 K
Cc1ccc(-c2cc(NC(=O)CSc3nnc(NCc4ccco4)s3)on2)cc1 | 0.08 K
COc1ccc(C2C(C(=O)c3ccc(C)cc3)=C(O)C(=O)N2CCCN2CCOCC2)cc1 (centres unmarked) | -0.17 K
CN(c1ccccc1)S(=O)(=O)c1cccc(C(=O)NCCc2c[nH]c3ccccc23)c1 | 0.16 K
CCCCC(CNC(=O)OC(C)(C)C)NC(=O)CCCc1nc2ccccc2c(=O)[nH]1 (centres unmarked) | -0.14 K
CCOc1cccc(/C=C2/Oc3cc(O)ccc3C2=O)c1OC | -0.02 K
NC(=O)CC1CCN(C(=O)c2ccn(-c3cccc(Cl)c3)n2)CC1 | -0.03 K
COc1ccc(-n2c(SCc3ccc([N+](=O)[O-])cc3)nnc2-c2ccccc2OC)cc1 | -0.08 K
O=C(CN1CCOCC1)N1CCNCC1 | -0.21 K
O=C(Nc1cnc2ccccc2c1)C(=O)N1CCC(Oc2ccccc2)CC1 | 0.07 K
CCS(=O)(=O)N1CCN(c2ccc(C(N)=O)cc2)CC1 | -0.15 K
Cc1csc(N2CCN(c3cc(=O)n4ccccc4n3)CC2)n1 | -0.05 K
CCCCn1c(N)c(N(CCOC)C(=O)c2cccc(S(=O)(=O)N(C)c3ccccc3)c2)c(=O)[nH]c1=O | -0.12 K
CN(c1cccc(Cl)c1)S(=O)(=O)c1cccc(C(=O)Nc2cc(C(N)=O)cc(C(N)=O)c2)c1 | 0.15 K
COc1cccc2c1OCC(Nc1cc(-c3nc(C)no3)ccn1)C2 (centres unmarked) | 0.08 K
O=C(COC(=O)c1ccc(-n2cccc2)cc1)Nc1ccccc1Cc1ccccc1 | -0.12 K
CC(C)C(=O)NN | -0.03 K

SMILES | TSA(without NAD+) / Primary screening (TSA) / delta Tm (K)
CCOC(=O)c1cnc2ccccc2c1NC1CCN(C(=O)OCC)CC1 | -0.12 K
CCCN(Cc1ccc(C(N)=O)cc1)Cc1nnc(-c2ccco2)o1 | -0.07 K
Cn1c(=O)[nH]c(=O)c2c1nc(N1CCC(C(N)=O)CC1)n2CCSc1nc2ccccc2o1 | 0.02 K
CCOc1ccc(C2C(C(=O)c3ccc(C)cc3)=C(O)C(=O)N2CCCN2CCOCC2)cc1 (centres unmarked) | -0.05 K
NC(=O)c1cccc(CN2CCCC2c2ccsc2)c1 (centres unmarked) | -0.08 K
COc1ccc(CCN2CC(C(=O)OCC(=O)NC(Cc3ccccc3)C(C)=O)CC2=O)cc1OC (centres unmarked) | -0.33 K
COCC(CN)OC (centres unmarked) | -0.13 K
CC(Oc1ccc2ccc(=O)oc2c1)C(=O)N1CCc2ccccc21 (centres unmarked) | -0.24 K
NC(=O)C1CCN(C(=O)c2[nH]c3ccc(F)cc3c2Cl)CC1 | -0.12 K
COc1ncnc2c1cnn2-c1ccccc1 | -0.13 K
NC(=O)c1cnc(Nc2ncnc3oc(-c4ccccc4)cc23)s1 | -0.18 K
CNC(=O)CNC(=O)CNC(=O)c1cccs1 | -0.07 K
CCn1cc(C(=O)N(C)Cc2ccc(OCc3ccccc3)c(OC)c2)c(=O)c2ccc(C)nc21 | -0.02 K
NC(=O)c1c(NC(=O)CSc2nnc(N3CCCC3)n2C2CC2)sc2c1CCC2 | -0.17 K
O=C(CSc1nncn1-c1ccccc1)Nc1ccccc1[N+](=O)[O-] | -0.13 K
COc1cc2c(N3CCC(c4cc(N)[nH]n4)CC3)ncnc2cc1F | 0.06 K
C=CCOc1ccc(C2C(C(=O)c3ccc(OCC)cc3)=C(O)C(=O)N2CCN2CCOCC2)cc1 (centres unmarked) | -0.12 K
COc1cc(C2C(C(=O)c3ccco3)=C(O)C(=O)N2CCCN2CCOCC2)cc(OC)c1OC (centres unmarked) | -0.12 K
O=C(NCCC12CC3CC(C1)CC(CCNC(=O)c1ccc(S(=O)(=O)N4CCOCC4)cc1)(C3)C2)c1ccc(S(=O)(=O)N2CCOCC2)cc1 | 0.17 K
Cc1ccc(-c2sc(-c3ccccc3)nc2CC(=O)Nc2nnc(CC(C)C)s2)cc1 | -0.15 K
CCOc1ccc(C(NC(=O)c2cc(C(N)=O)cn2C)C(C)C)cc1OCC (centres unmarked) | -0.08 K
NCC1CCCC1N (centres unmarked) | 0.02 K
CN(C)Cc1ccc(C(=O)Nc2cccc(C(=O)NC3CC3)c2)cc1 | -0.03 K

A few values from the results shown.
TSA(without NAD+) / Primary screening (TSA) / delta Tm (K) with COCC(CN)OC (centres unmarked) reads -0.13 K
TSA(without NAD+) / Primary screening (TSA) / delta Tm (K) with CCn1cc(C(=O)N(C)Cc2ccc(OCc3ccccc3)c(OC)c2)c(=O)c2ccc(C)nc21 reads -0.02 K
TSA(without NAD+) / Primary screening (TSA) / delta Tm (K) with COc1cc2c(N3CCC(c4cc(N)[nH]n4)CC3)ncnc2cc1F reads 0.06 K
TSA(without NAD+) / Primary screening (TSA) / delta Tm (K) with COc1ncnc2c1cnn2-c1ccccc1 reads -0.13 K
TSA(without NAD+) / Primary screening (TSA) / delta Tm (K) with C=CCOc1ccc(C2C(C(=O)c3ccc(OCC)cc3)=C(O)C(=O)N2CCN2CCOCC2)cc1 (centres unmarked) reads -0.12 K

The listing continues:

SMILES | TSA(without NAD+) / Primary screening (TSA) / delta Tm (K)
Cc1sc2ncnc(N3CCCC(C(N)=O)C3)c2c1C (centres unmarked) | -0.13 K
Cn1c(SCC(N)=O)nc2ccccc21 | -0.23 K
Cc1c(C(C)C)c(Cl)n2c(nc3ccccc32)c1C#N | -0.02 K
CCOc1cc2c(cc1CNC(=O)NCc1cn(Cc3ccccc3)nc1-c1ccccc1)OC(C)C2 (centres unmarked) | -0.07 K
O=C(CN1CCN(C(=O)c2ccc(-c3nc4ccccc4s3)o2)CC1)Nc1cccc(F)c1 | 0.07 K
O=C1NC(=S)N/C1=C/c1ccc(-c2ccc(Cl)cc2)o1 | -0.04 K
O=C1NC(=S)NC(=O)C1=CNc1ccc(Br)cc1 | 0.03 K
COc1ccccc1CNC(=O)CN(C)Cc1ccc(SC)cc1 | -0.22 K
NC(=O)c1ccc(COc2ccc3oc4ccccc4c3c2)cc1 | 0.02 K
O=C1NC(=S)NC(=O)C1=Cc1ccc(-c2ccccc2)o1 | -0.33 K
O=C(O)c1ccc2[nH]c(C(F)F)nc2c1 | 0.15 K
CCC(C)N(C)CCN (centres unmarked) | -0.04 K
O=C(CSc1nnc(CC2CCS(=O)(=O)C2)o1)NC1CCCc2ccccc21 (centres unmarked) | -0.02 K
NC(=O)c1csc(C(=O)NCCc2cc(F)cc3c2OCOC3)c1 | -0.04 K
CCc1cccc2c(C(=O)N3CCN(C4CCCC4O)CC3)c[nH]c12 (centres unmarked) | -0.02 K
O=C(COC(=O)C12CC3CC(C1)CC(c1ccccc1)(C3)C2)N1CCN(c2ccccc2)CC1 | -0.14 K
c1ccc2[nH]c(-c3nc4c5ccccc5ncn4n3)cc2c1 | 0.07 K
CN1CCC(NC(=O)c2cnc(N)c(Cl)c2)C1c1ccc(F)cc1 (centres unmarked) | -0.03 K
COc1ccc(NC(=O)CCN2C(=O)c3ccc(C)cc3C2=O)cc1OCc1cn2ccccc2n1 | -0.15 K
Cc1nc(CSc2nccn2Cc2ccccn2)cs1 | -0.05 K
COCCN(C)CCN | -0.14 K
Cc1ccc(C)c(C(=O)CCC(=O)OC(C)C(=O)Nc2ccc(C(N)=O)cc2)c1 (centres unmarked) | -0.05 K
O=C1CC2(CCCCC2)CC(=O)C1=CN/N=C1/C(=O)Nc2ccccc21 | -0.07 K
